Numbering of substitutions follows the chain as printed. Names may count otherwise. These are yes or no findings as the source states them, for the method shown. In cells and extracts the contact can be indirect. Some entries that bind do so weakly or less than the wild type.

The chains behind the UniProt entries cited, without tags or fusion partners.
UniProt P22336: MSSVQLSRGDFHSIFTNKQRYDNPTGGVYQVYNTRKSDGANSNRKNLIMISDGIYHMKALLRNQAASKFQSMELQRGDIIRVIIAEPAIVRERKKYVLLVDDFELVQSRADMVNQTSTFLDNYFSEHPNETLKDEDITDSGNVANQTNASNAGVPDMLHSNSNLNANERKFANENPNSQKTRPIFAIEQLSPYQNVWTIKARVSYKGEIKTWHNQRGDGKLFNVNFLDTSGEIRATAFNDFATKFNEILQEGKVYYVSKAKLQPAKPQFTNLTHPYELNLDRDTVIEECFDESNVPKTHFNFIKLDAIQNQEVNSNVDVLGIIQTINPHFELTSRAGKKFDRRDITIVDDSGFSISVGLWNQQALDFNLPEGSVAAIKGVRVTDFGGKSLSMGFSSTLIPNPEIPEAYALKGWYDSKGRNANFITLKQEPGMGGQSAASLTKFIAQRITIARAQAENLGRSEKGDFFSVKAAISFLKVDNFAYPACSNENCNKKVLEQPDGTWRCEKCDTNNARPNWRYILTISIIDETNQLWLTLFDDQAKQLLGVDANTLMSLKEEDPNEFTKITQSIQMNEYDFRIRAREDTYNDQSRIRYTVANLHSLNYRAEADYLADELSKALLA
UniProt Q8IY92: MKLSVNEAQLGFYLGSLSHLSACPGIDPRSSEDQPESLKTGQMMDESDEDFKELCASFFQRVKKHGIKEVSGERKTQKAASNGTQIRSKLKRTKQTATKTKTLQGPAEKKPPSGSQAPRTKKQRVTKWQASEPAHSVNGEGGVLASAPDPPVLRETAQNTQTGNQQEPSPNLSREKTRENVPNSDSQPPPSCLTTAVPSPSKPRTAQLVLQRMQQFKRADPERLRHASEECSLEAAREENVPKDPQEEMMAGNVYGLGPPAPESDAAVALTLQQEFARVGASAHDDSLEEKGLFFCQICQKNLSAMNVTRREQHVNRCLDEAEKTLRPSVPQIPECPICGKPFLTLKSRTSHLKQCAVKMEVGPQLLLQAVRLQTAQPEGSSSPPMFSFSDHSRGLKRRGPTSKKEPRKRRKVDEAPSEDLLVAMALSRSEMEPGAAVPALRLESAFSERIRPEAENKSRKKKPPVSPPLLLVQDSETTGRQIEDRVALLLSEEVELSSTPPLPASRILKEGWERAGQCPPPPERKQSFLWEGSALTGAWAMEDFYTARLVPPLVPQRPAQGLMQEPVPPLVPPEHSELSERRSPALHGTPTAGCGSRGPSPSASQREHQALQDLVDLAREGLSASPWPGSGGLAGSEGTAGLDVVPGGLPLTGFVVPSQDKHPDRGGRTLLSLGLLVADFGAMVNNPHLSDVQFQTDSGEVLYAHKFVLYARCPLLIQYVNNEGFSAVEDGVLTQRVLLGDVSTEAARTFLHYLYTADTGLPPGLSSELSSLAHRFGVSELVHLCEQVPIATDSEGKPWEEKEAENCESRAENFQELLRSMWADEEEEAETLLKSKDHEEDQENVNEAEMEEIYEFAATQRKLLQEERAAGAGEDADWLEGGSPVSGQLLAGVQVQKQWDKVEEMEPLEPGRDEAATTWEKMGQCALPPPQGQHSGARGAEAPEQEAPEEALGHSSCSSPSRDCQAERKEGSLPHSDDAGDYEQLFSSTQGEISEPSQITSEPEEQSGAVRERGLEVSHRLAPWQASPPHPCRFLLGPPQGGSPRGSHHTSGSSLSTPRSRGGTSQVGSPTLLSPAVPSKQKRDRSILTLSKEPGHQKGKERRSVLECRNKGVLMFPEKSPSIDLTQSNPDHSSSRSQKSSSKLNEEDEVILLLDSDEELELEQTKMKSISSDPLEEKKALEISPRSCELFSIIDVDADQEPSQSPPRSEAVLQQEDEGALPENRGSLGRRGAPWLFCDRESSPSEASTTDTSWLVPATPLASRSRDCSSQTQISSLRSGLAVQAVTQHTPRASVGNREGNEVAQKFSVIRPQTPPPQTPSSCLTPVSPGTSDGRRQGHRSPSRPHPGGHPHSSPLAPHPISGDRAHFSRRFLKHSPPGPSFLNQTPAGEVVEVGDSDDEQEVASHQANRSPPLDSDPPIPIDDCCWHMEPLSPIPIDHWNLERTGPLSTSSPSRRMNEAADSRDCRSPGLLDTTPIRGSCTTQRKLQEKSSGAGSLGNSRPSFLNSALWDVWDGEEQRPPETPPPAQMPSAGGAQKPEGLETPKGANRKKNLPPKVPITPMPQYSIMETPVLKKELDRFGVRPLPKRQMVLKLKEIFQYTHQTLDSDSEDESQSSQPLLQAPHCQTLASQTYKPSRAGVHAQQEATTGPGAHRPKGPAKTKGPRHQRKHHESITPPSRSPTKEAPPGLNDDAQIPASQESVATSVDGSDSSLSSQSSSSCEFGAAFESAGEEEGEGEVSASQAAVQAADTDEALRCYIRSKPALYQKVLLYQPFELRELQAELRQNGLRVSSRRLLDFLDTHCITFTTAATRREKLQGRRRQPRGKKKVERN

In assay [1] the target is TAP-tagged Slx4 (S. cerevisiae) (UniProt Q12098). As to the kind of experiment: co-IP; yeast lysate of cells expressing TAP-tagged Slx4 and plasmid-borne Rad1-3HA variants; IgG agarose beads; blot with anti-HA.
Assay [2] deals with Rpa1 (yeast), the large subunit of the replication protein A (RPA) complex (S. cerevisiae (endogenous in yeast cells)) (UniProt P22336). As to the kind of experiment: co-IP; yeast lysate; C-terminal 3xHA tagged Rad1 variants with Rpa1; blots with anti-HA and anti-Rpa1; which antibody precipitated is not told.
The target of assay [3] is RPA1 (endogenous, 293T) (human (endogenous in 293T)), P27694. In words: co-IP; 293T cells transfected with HA tagged XPF variants, 20 μM cisplatin for 2 h or mock; lysis buffer 20 mM Tris-HCl pH 7.2, 100 mM NaCl, 10% glycerol, 1 mM EDTA, 0.1% NP-40, 1% Triton X-100; IP with anti-RPA70 or anti-SLX4 and protein G-agarose; blot with anti-HA. As to conditions: remark: other sources report otherwise.

Assay [4] has as its target SLX4 (endogenous, 293T) (human (endogenous in 293T)) (UniProt Q8IY92). Described as above.

B1: Rad1-3HA (protein, UniProt P06777 1-1100)
chain: MSQLFYQGDSDDELQEELTRQTTQASQSSKIKNEDEPDDSNHLNEVENEDSKVLDDDAVLYPLIPNEPDDIETSKPNINDIRPVDIQLTLPLPFQQKVVENSLITEDALIIMGKGLGLLDIVANLLHVLATPTSINGQLKRALVLVLNAKPIDNVRIKEALEELSWFSNTGKDDDDTAVESDDELFERPFNVVTADSLSIEKRRKLYISGGILSITSRILIVDLLSGIVHPNRVTGMLVLNADSLRHNSNESFILEIYRSKNTWGFIKAFSEAPETFVMEFSPLRTKMKELRLKNVLLWPRFRVEVSSCLNATNKTSHNKVIEVKVSLTNSMSQIQFGLMECLKKCIAELSRKNPELALDWWNMENVLDINFIRSIDSVMVPNWHRISYESKQLVKDIRFLRHLLKMLVTSDAVDFFGEIQLSLDANKPSVSRKYSESPWLLVDEAQLVISYAKKRIFYKNEYTLEENPKWEQLIHILHDISHERMTNHLQGPTLVACSDNLTCLELAKVLNASNKKRGVRQVLLNKLKWYRKQREETKKLVKEVQSQDTFPENATLNVSSTFSKEQVTTKRRRTRGASQVAAVEKLRNAGTNVDMEVVFEDHKLSEEIKKGSGDDLDDGQEENAANDSKIFEIQEQENEILIDDGDAEFDNGELEYVGDLPQHITTHFNKDLWAEHCNEYEYVDRQDEILISTFKSLNDNCSLQEMMPSYIIMFEPDISFIRQIEVYKAIVKDLQPKVYFMYYGESIEEQSHLTAIKREKDAFTKLIRENANLSHHFETNEDLSHYKNLAERKLKLSKLRKSNTRNAGGQQGFHNLTQDVVIVDTREFNASLPGLLYRYGIRVIPCMLTVGDYVITPDICLERKSISDLIGSLQNNRLANQCKKMLKYYAYPTLLIEFDEGQSFSLEPFSERRNYKNKDISTVHPISSKLSQDEIQLKLAKLVLRFPTLKIIWSSSPLQTVNIILELKLGREQPDPSNAVILGTNKVRSDFNSTAKGLKDGDNESKFKRLLNVPGVSKIDYFNLRKKIKSFNKLQKLSWNEINELINDEDLTDRIYYFLRTEKEEQEQESTDENLESPGKTTDDNALHDHHNDVPEAPV
With B1, the binding entry in assay [1] and in assay [2] was “binds” in each case.

B2: rad1-E349K-3HA (protein, UniProt P06777 1-1100)
chain: B1 chain with E349K
As to B2, the binding result in assay [1] is recorded as “binds”.

B3: XPF-3xHA, Q92889 1-916 (protein)
chain: MESGQPARRIAMAPLLEYERQLVLELLDTDGLVVCARGLGADRLLYHFLQLHCHPACLVLVLNTQPAEEEYFINQLKIEGVEHLPRRVTNEITSNSRYEVYTQGGVIFATSRILVVDFLTDRIPSDLITGILVYRAHRIIESCQEAFILRLFRQKNKRGFIKAFTDNAVAFDTGFCHVERVMRNLFVRKLYLWPRFHVAVNSFLEQHKPEVVEIHVSMTPTMLAIQTAILDILNACLKELKCHNPSLEVEDLSLENAIGKPFDKTIRHYLDPLWHQLGAKTKSLVQDLKILRTLLQYLSQYDCVTFLNLLESLRATEKAFGQNSGWLFLDSSTSMFINARARVYHLPDAKMSKKEKISEKMEIKEGEETKKELVLESNPKWEALTEVLKEIEAENKESEALGGPGQVLICASDDRTCSQLRDYITLGAEAFLLRLYRKTFEKDSKAEEVWMKFRKEDSSKRIRKSHKRPKDPQNKERASTKERTLKKKKRKLTLTQMVGKPEELEEEGDVEEGYRREISSSPESCPEEIKHEEFDVNLSSDAAFGILKEPLTIIHPLLGCSDPYALTRVLHEVEPRYVVLYDAELTFVRQLEIYRASRPGKPLRVYFLIYGGSTEEQRYLTALRKEKEAFEKLIREKASMVVPEEREGRDETNLDLVRGTASADVSTDTRKAGGQEQNGTQQSIVVDMREFRSELPSLIHRRGIDIEPVTLEVGDYILTPEMCVERKSISDLIGSLNNGRLYSQCISMSRYYKRPVLLIEFDPSKPFSLTSRGALFQEISSNDISSKLTLLTLHFPRLRILWCPSPHATAELFEELKQSKPQPDAATALAITADSETLPESEKYNPGPQDFLLKMPGVNAKNCRSLMHHVKNIAELAALSQDELTSILGNAANAKQLYDFIHTSFAEVVSKGKGKK
Consider B3, for which, in assay [3], the binding entry is “binds”.

B4: XPF-3xHA (protein, UniProt Q92889 1-916)
chain: B3 chain
With B4, the binding result in assay [4] is on record as “binds”.
